The text below walks through data of patent US20090305946A1.

Amino acid sequences for entries named in this document (tags omitted). A change or cut given only in a name is not applied to a line headed by its entry. Chains listed by the source or under a name are the forms on record and can include a tag or linker.
human G-protein GαoB (P09471, form named): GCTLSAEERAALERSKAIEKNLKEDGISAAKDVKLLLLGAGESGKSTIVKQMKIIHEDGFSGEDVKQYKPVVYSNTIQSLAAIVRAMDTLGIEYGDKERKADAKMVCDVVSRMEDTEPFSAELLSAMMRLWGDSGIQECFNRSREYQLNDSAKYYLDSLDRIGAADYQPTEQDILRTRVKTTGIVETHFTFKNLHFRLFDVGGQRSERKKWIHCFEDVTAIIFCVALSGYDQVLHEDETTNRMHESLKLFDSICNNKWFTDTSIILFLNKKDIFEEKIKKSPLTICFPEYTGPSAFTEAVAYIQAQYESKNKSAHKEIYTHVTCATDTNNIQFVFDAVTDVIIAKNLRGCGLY

Assay [1] has as its target tail-less PS-2 (amino acids 1-410 of PS-2) (human) (UniProt P49810). Kind of assay: co-immunoprecipitation with PS-2 MAb, Western blot with anti-Go. On the technique in general: In western blotting, separated proteins are transferred to a membrane and probed.
Assay [2] has the same target. The assay is described as follows: co-immunoprecipitation with MAb to PS-2, Western blot with anti-Go (FIG. 2).

No constants are given. Whether binding was seen depends on the method and setting. Binding seen in cells or lysates may run through a third protein. Some results given as binding are weak or reduced against the parent protein; the word gives no strength.

Turning to “human G-protein GαoB (from UniProt P09471 2-354)”, the binding entry in assay [1] and in assay [2] was “binds” throughout.
